Reference: the supplement of paper PMC5949888
Most values lie at the floor of the assay. Slopes are relative: functional sequences can read slightly below zero.

The substances below were run on Saccharomyces cerevisiae PS128 hsf1 delta, HSF1(1-493) fusion (assay: growth estimate (transactivation domain function in HSF1 fusion, heat-shock survival) (a.u. (slope of normalised read count over time)); higher = stronger growth at 37°C, i.e. more transactivation activity). Settings: library: random library.
GDYAIQGRLADRINLALPYR gave a growth estimate of less than -0.25. In the case of RAASRLR, the growth estimate is reported as less than -0.25. GYSMGGPRKFALAKAPMHAV gave a growth estimate of less than -0.25. For LRPGSAHSNVAEVTGGLICH, the growth estimate was less than -0.25. PKFGV gave a growth estimate of less than -0.25. Substance LFR has a growth estimate of less than -0.25. Work on STSGQTNLHSDIA yielded a growth estimate of -0.246. Work on RRGIILNIRSGSLP yielded a growth estimate of less than -0.25. In the case of CLRVSESELERVEVRDFGLE, the growth estimate is reported as less than -0.25. With TGSLWL the growth estimate was less than -0.25. TALRYCIGVTRASKLVPGYG was tested, and the growth estimate was less than -0.25. Work on VLFDGRVGSV yielded a growth estimate of less than -0.25. SGTGLSPAVRLMAGLFRRAP gave a growth estimate of less than -0.25. For DGVWRNMFTGVISRVISSAG, the growth estimate was less than -0.25. CNV was tested, and the growth estimate was less than -0.25. In the case of CRGC, the growth estimate is reported as less than -0.25. RKVLDRDER was tested, and the growth estimate was less than -0.25. Substance KCKQGEGGSRFFWTVTESGE has a growth estimate of less than -0.25. Work on CRSGSVSQRQ yielded a growth estimate of less than -0.25. RARDGCVR was tested, and the growth estimate was less than -0.25. GYVGLCHRQWPLAM showed a growth estimate of less than -0.25. Substance RSQTQAHKL has a growth estimate of less than -0.25. With IRKTVRRPVCVASEPSPVGG the growth estimate was less than -0.25. For LAETGRWCPYARCE, the growth estimate was less than -0.25. Substance ALLSNSKDFVGKSVASAGAE has a growth estimate of less than -0.25. Substance VNPVQPVVRVGIRRQFEVQ has a growth estimate of less than -0.25. TDGQCDLCFARSEQLPD gave a growth estimate of less than -0.25. ICMKDRGALIRLFLSEAAPG gave a growth estimate of less than -0.25. DLNCAHAPSALVATCPPLTC was tested, and the growth estimate was less than -0.25. With SVHDKPGQMSVVCWALRTVI the growth estimate was less than -0.25. SPPETLLNWMSCNVLGGSIC gave a growth estimate of -0.234. In the case of LHERSSLVNADHMF, the growth estimate is reported as less than -0.25. GLLNVMRSGPWVGDTGLTTG was tested, and the growth estimate was less than -0.25. EPLSATI was tested, and the growth estimate was less than -0.25. KQYRWRV was tested, and the growth estimate was less than -0.25. With CREGNLLTAPEVLTECGPRV the growth estimate was less than -0.25. With VASGSATAGDHARDLLGECG the growth estimate was less than -0.25. For AIGQNGVDGGPSACWLLGHT, the growth estimate was less than -0.25. LTCYLARTAK showed a growth estimate of less than -0.25. Work on HFEMDAS yielded a growth estimate of less than -0.25. For REWVTPRSY, the growth estimate was less than -0.25. In the case of FAENQDGCSASAHPHWMHGS, the growth estimate is reported as less than -0.25. NRSG was tested, and the growth estimate was less than -0.25. Substance LPHAALPVSWGFLMLADRQS has a growth estimate of less than -0.25. With FRKRRVDECPSESA the growth estimate was less than -0.25. For VRSNESIQALVFHSDLYS, the growth estimate was less than -0.25. With LEKLWGGDRHIKPPGRSYGS the growth estimate was less than -0.25. For AHF, the growth estimate was less than -0.25. CKVNDSSANSSLIAISVVVE gave a growth estimate of less than -0.25. For CLGERAIGVSWLLGKFNRRL, the growth estimate was less than -0.25. Substance GLLIPSGLELRAL has a growth estimate of less than -0.25. PTYQRYSNIQRRFYRARSSL gave a growth estimate of less than -0.25. LLLHFSGTGPI was tested, and the growth estimate was less than -0.25. VTRAGGKPCAGIEKHKRVRL was tested, and the growth estimate was less than -0.25. Substance TYKADGSHRI has a growth estimate of less than -0.25. Work on DQDST yielded a growth estimate of less than -0.25. HKPIASNGYAVILHCEADTY gave a growth estimate of less than -0.25. Work on QPLGGIDCPERR yielded a growth estimate of less than -0.25. LRGPASTIKQSGTWANEMSA was tested, and the growth estimate was less than -0.25. For ECSCKPRLRPASPL, the growth estimate was less than -0.25. For GPLIRMQCWLTGGSASPLLY, the growth estimate was less than -0.25. FPPQPRLCLVLRRSKLGPCK showed a growth estimate of less than -0.25. TRDVAERIKSAGPASTALWL showed a growth estimate of less than -0.25. For NRNDKTASRRTRSAYTSCDG, the growth estimate was less than -0.25. With EMQR the growth estimate was less than -0.25. In the case of NRSRVICKRTPI, the growth estimate is reported as less than -0.25. Substance FNRKENRQDVERS has a growth estimate of less than -0.25. SVTRGTHVVISQVARMACRR gave a growth estimate of less than -0.25. With FKPRGASARVRCIARVKSAE the growth estimate was less than -0.25. Substance LKVI has a growth estimate of less than -0.25. For RGMPGAS, the growth estimate was less than -0.25. Work on VRGEWNGVEG yielded a growth estimate of less than -0.25. With NPNDRYGQACGVSDREF the growth estimate was less than -0.25. Work on SKATSRQRYARVSLRHRWRG yielded a growth estimate of less than -0.25. GGRDLDH was tested, and the growth estimate was less than -0.25. Work on GWALSPGAEACAGKDRISRA yielded a growth estimate of less than -0.25. WAITLVIHCMGLKQR gave a growth estimate of less than -0.25. With WTGTAEIGVRLGLKIYSGGS the growth estimate was less than -0.25. RCEITGIHAIFYVRRSGRCL was tested, and the growth estimate was less than -0.25. SEQKLDVCYSLRLLRRRVRL showed a growth estimate of less than -0.25. PAKG gave a growth estimate of less than -0.25. SHSGASGTVVLEIHACAQVA showed a growth estimate of less than -0.25. With YRGSSDGKMGEIQLIYTKVS the growth estimate was less than -0.25. PFRGEGTCVVDVLTYIEPYV was tested, and the growth estimate was less than -0.25. For FLPYVHPER, the growth estimate was less than -0.25. PVDVQDVATMEEHSSYARLS showed a growth estimate of less than -0.25. GTARFHLSIRHLVSKLRV showed a growth estimate of less than -0.25. PQRSPVEWKFGGFRETSSVI showed a growth estimate of less than -0.25. SRYKLRRGFSTATDG was tested, and the growth estimate was less than -0.25. For TSSNVSI, the growth estimate was -0.246. For FGLSTRLIVSFVVQVQGRTP, the growth estimate was less than -0.25. Substance RGEITGEKASKGTVTFGHTV has a growth estimate of less than -0.25. ISRPNGGWASRCADARGVIS was tested, and the growth estimate was less than -0.25. For AFFTKSALK, the growth estimate was less than -0.25. AALRYSSRNGHIGNVFDLG showed a growth estimate of less than -0.25. With DLVHRLTKLVGICNAQRAVS the growth estimate was less than -0.25. For GPSIRVRCHRDKYYIGRTVK, the growth estimate was less than -0.25. Work on FGEPRSSLNNIVRSAVSAEV yielded a growth estimate of less than -0.25. Substance GGLRRATRPRPSLNGRSVTK has a growth estimate of less than -0.25. WTLLFYTYSHRREQVLYGDV gave a growth estimate of less than -0.25. SGFGEEQPLTAEFEPPGYKV was tested, and the growth estimate was less than -0.25. ANLTAVAAFNSVPTEWLKLP showed a growth estimate of less than -0.25. SLRGNDLAILTAFKLRFRRR gave a growth estimate of less than -0.25. REAPGPTI gave a growth estimate of less than -0.25. Substance LPMQFIRC has a growth estimate of less than -0.25. With DPREESKYGTIGPSLWASSS the growth estimate was less than -0.25. Substance VVVSWRGRTKCTGWFVNGS has a growth estimate of less than -0.25. ESIADPPGVARSSRKRPLSW showed a growth estimate of less than -0.25. With SGTWEV the growth estimate was less than -0.25. Work on NQVHKVRLATATGNNTASIA yielded a growth estimate of less than -0.25. IAKS showed a growth estimate of less than -0.25. Work on GCRQSLPVANRLRPCSI yielded a growth estimate of less than -0.25. GMGFFRRWDSSWYSPALLAF showed a growth estimate of less than -0.25. VSTSALKLMLSHHV gave a growth estimate of less than -0.25. With SLPPSNTVARCGTPHWYSVM the growth estimate was less than -0.25. RETDRT showed a growth estimate of less than -0.25. Work on SITLLPTLGGDVKEPGVERV yielded a growth estimate of less than -0.25. ACMHVKLSLVTCVVLHGRDH was tested, and the growth estimate was less than -0.25. With LGTTVRMIPRKSVGRWVRTR the growth estimate was less than -0.25. KNERR showed a growth estimate of less than -0.25. Work on NDPRKFESLLLH yielded a growth estimate of less than -0.25. Work on ESPQSSILLEMYI yielded a growth estimate of less than -0.25. For ATHL, the growth estimate was less than -0.25. VLLDWRKG gave a growth estimate of less than -0.25. FQGGLTVCH showed a growth estimate of -0.231. For CTSIIAWSNLGTR, the growth estimate was less than -0.25. With VIHRHFGPPLQQAIRTGTLG the growth estimate was less than -0.25. With ESAPEGR the growth estimate was less than -0.25. With TVIRPIKAMSTGYLRMAGLG the growth estimate was less than -0.25. For RLFLIIRSE, the growth estimate was -0.25. Substance VDWSLGGLLRYRKSQPGPPT has a growth estimate of less than -0.25. PLMFASGWQSTAL gave a growth estimate of less than -0.25. With GAPT the growth estimate was less than -0.25. SCRSSIVVHWRCD showed a growth estimate of less than -0.25. Work on RRPDPVGLDRFILSRKPRSA yielded a growth estimate of less than -0.25. In the case of RLLGNLLP, the growth estimate is reported as -0.19. LIHKWLGSEFTSCVIRLSVF showed a growth estimate of -0.243. In the case of DRRDLVGMLHNEPQAPQQQP, the growth estimate is reported as less than -0.25. In the case of LRFELGWQPFTILNLLVKGL, the growth estimate is reported as less than -0.25. Work on KVGSAG yielded a growth estimate of less than -0.25. With LGCSRVQEEYNFIKVVDWIW the growth estimate was less than -0.25. TELTASISSGRILQVSGSTW was tested, and the growth estimate was less than -0.25. RVSSTLVRSVIKSS was tested, and the growth estimate was less than -0.25. QHEHDIWPNGNIGSLNPAIL was tested, and the growth estimate was less than -0.25. Work on DRQLRIGVW yielded a growth estimate of less than -0.25. PLSKTPPPRLIAALKRSAAT showed a growth estimate of less than -0.25. For RTVSKTRSQNPNGNRQSPSK, the growth estimate was less than -0.25. In the case of TGASQRSVVRPGSRESASRV, the growth estimate is reported as less than -0.25. Substance FIGPRLGNLLDTPMLTPFRQ has a growth estimate of less than -0.25. With GVLLAGVCDID the growth estimate was less than -0.25. Substance TSSL has a growth estimate of less than -0.25. In the case of SGVAGVGSKHRQELGFIPLR, the growth estimate is reported as less than -0.25. In the case of VLIYDCS, the growth estimate is reported as less than -0.25. For QPSLSQKCS, the growth estimate was less than -0.25. LSVVAISTSTLMFGTRLGVF was tested, and the growth estimate was less than -0.25. For DASWTRASRLVAMCRIPSS, the growth estimate was less than -0.25.
